{"sequences": {"note": "Amino acid sequences for entries named in this document (tags omitted).", "UniProt P18054, whole entry, looked up": "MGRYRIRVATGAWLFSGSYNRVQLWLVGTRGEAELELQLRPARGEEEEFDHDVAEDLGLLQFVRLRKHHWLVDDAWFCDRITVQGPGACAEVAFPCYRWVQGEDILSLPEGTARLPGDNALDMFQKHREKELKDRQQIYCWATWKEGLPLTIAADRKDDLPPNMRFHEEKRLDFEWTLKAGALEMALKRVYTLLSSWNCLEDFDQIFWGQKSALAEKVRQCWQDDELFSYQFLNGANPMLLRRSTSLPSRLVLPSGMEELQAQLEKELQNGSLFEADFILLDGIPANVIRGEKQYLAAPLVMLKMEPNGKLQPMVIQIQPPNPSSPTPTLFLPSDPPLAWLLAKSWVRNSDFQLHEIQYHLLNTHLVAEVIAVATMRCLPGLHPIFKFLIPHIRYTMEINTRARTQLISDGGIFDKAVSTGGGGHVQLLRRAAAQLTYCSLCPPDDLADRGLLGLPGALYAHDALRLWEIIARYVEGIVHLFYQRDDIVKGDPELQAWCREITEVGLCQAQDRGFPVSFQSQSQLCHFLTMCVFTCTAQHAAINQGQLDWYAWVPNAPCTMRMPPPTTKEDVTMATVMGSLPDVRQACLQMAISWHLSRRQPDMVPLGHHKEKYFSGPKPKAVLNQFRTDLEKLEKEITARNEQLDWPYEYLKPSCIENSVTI"}, "source": "PubChem BioAssay AID1671190", "about": "(National Center for Advancing Translational Sciences (NCATS), 2021)", "note": "Out of some 580,000 compounds screened, about 6,100 (1.1%) were called active. The shares of active, inactive and inconclusive entries below differ from those in the screen. The call rests on the fitted dose curve; in most records, active means well fitted inhibition curve with a large enough effect; inconclusive means small, poorly fitted or top-dose-only effect, or another doubt; inactive means no such curve, though single readings can be large or run the other way. Potencies beside an inconclusive call are fits to weak or partial responses and may not hold up. On the % scale 0 is the no-effect control and ±100 the full control effect; potency means the concentration at half of the fitted maximal effect."}
{"molecular_target": "Polyunsaturated fatty acid lipoxygenase ALOX12 (Homo sapiens) (UniProt P18054)", "experiment": "Primary qHTS assay for inhibitors of human arachidonate 12S-lipoxygenase (ALOX12): Round 2", "conditions": "purified 12hLO, xylenol orange hydroperoxide absorbance; activity change, negative = inhibition: at 108 µM (top of the series) unless noted", "summary_of_the_method": "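Purified human 12hLO at 150 nM in 25 mM Hepes, 0.01% Triton X-100, pH 7.0, preincubated 15 min at room temperature with compound. Reaction started with 40 uM arachidonic acid, 30 min at room temperature. Hydroperoxide measured by Fe-xylenol orange, 573/405 nm absorbance ratio.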"}
{"smiles": "COc1ccc(C(C(=O)NC2CCCC2)N2CCc3ccccc32)cc1", "note": "(stereo not drawn)", "Potency": "inconclusive: 8.91 µM [inhibitor, full curve]"}
{"smiles": "CCN1CCN(c2oc(-c3ccccc3OC)nc2C#N)CC1", "activity change, negative = inhibition": "inactive: -5.89%"}
{"smiles": "Cc1c(C(F)(F)F)nc(-c2ccc(CN3CCNCC3)cc2)[nH]c1=O", "Potency": "inconclusive: 7.94 µM [inhibitor, partial curve]"}
{"smiles": "Cc1c(Cc2ccccc2)c(=O)oc2c(C)c(OCC(=O)Nc3ccc(C#N)cc3)ccc12", "activity change, negative = inhibition": "inactive: -16.7%"}
{"smiles": "CNC(=O)c1c(NC(=O)/C=C/c2ccccc2Cl)sc2c1CCC2", "Potency": "inconclusive: 50.1 µM [inhibitor, partial curve, poor fit]"}
{"smiles": "Cc1ccccc1C(=O)N(Cc1nc(-c2ccc(Cl)cc2)no1)C(C)C", "Potency": "inconclusive: 126 µM [inhibitor, partial curve, poor fit]"}
{"smiles": "CN(C)c1cc[n+](/C(C(=S)Nc2ccc(SC(F)F)cc2)=C(/[O-])c2ccccc2)cc1", "activity change, negative = inhibition": "inactive: -1.27%"}
{"smiles": "CCOc1cccc2cc(C(=O)Oc3ccc(OC)cc3)c(=O)oc12", "Potency": "active: 35.5 µM"}
{"smiles": "CC(NC(=O)CN(c1ccc(Cl)cc1Cl)S(=O)(=O)c1ccccc1)c1ccccc1", "note": "(stereo not drawn)", "Potency": "inconclusive: 89.1 µM [inhibitor, partial curve, poor fit]"}
{"smiles": "CCCn1c(C)cc(C(=O)COC(=O)c2nn(CCC)c(=O)c3ccccc23)c1C", "Potency": "inconclusive: 56.2 µM [inhibitor, single point]"}
{"smiles": "CCc1ccccc1NC(=O)CCN1C(=O)c2ccccc2C1=O", "activity change, negative = inhibition": "inactive: 91.1%"}
{"smiles": "CCOC(=O)c1cn[nH]c1NC(=S)Nc1ccc(OC)cc1", "Potency": "inconclusive: 79.4 µM [inhibitor, partial curve, poor fit]"}
{"smiles": "CCOC(=O)c1[nH]c2ccc(Br)cc2c1NC(=O)CCN1CCCC(C)(C)C1", "Potency": "inconclusive: 112 µM [inhibitor, partial curve, poor fit]"}
{"smiles": "CCC(=O)Nc1ccc(CC)cc1-c1nc2ccccc2n(Cc2ccccc2)c1=O", "Potency": "inconclusive: 56.2 µM [inhibitor, partial curve, poor fit]"}
{"smiles": "Cc1ccc(NC(=O)c2ccc(CSc3ccccn3)cc2)cc1", "Potency": "inconclusive: 112 µM [inhibitor, single point]"}
{"smiles": "C[C@@H]1C=CCCO[C@]12C(=O)N(Cc1ccc(Br)cc1)c1ccccc12", "Potency": "inconclusive: 70.8 µM [inhibitor, partial curve, poor fit]"}
{"smiles": "O=S(=O)(NC(c1ccccc1)c1ccccc1)c1cccc2nsnc12", "Potency": "active: 11.2 µM"}
{"smiles": "CC(=O)N1CCc2cc(NC(=O)CCc3ncc(-c4ccccc4F)o3)ccc21", "activity change, negative = inhibition": "inactive: 8.37%"}
{"smiles": "CCC(CC)C(=O)Nc1ccc(C)cc1C", "activity change, negative = inhibition": "inactive: 25.6%"}
{"smiles": "Cc1cccc(-c2oc3ccc(-c4ccc5c(c4)OCO5)cc3c2C(=O)OCc2ccc(O)cc2)c1", "Potency": "inconclusive: 63.1 µM [inhibitor, partial curve, poor fit]"}
{"smiles": "Cn1c(=O)c2nc(NCc3ccccc3)sc2n(C)c1=O", "Potency": "inconclusive: 31.6 µM [inhibitor, partial curve, poor fit]"}
{"smiles": "N#C/C(=C/c1cccn1-c1cccc(C(F)(F)F)c1)c1ccc([N+](=O)[O-])cc1", "activity change, negative = inhibition": "inactive: 2.23%"}
{"smiles": "Cc1ccc(Nc2c(-c3ccc(O)cc3)nc3cccc(C)n23)cc1", "activity change, negative = inhibition": "inactive: -18.3%"}
{"smiles": "CCC[C@@H]1CCCO[C@@](C(=O)NCc2cc(C)n(C)n2)(C(F)(F)F)C1", "activity change, negative = inhibition": "inactive: 3.27%"}
{"smiles": "CC(=O)c1cccc(OCC(O)CNCC2CCCCC2)c1", "note": "(stereo not drawn)", "Potency": "inconclusive: 2.82 µM [inhibitor, full curve, poor fit]"}
{"smiles": "COc1ccccc1OCc1nnc(SCC(N)=O)n1-c1ccccc1", "Potency": "inconclusive: 35.5 µM [inhibitor, partial curve, poor fit]"}
{"smiles": "Cc1c(Br)c(C(F)(F)F)nn1CC(=O)Nc1c(F)cc(F)cc1Br", "activity change, negative = inhibition": "inactive: 23.9%"}
{"smiles": "COC(=O)c1ccc(-c2ccc(/C=N/N3C(=O)C4C5C=CC(C6CC56)C4C3=O)o2)cc1", "note": "(stereo not drawn)", "Potency": "inconclusive: 3.16 µM [inhibitor, full curve]"}
{"smiles": "O=[N+]([O-])c1cc(/C=N/Nc2ccc(S(=O)(=O)Nc3ccc(Cl)cc3)cc2[N+](=O)[O-])ccc1Cl", "activity change, negative = inhibition": "inactive: -18.7%"}
{"smiles": "CN(C)C(=O)c1ccc(NC(=O)COC(=O)C2(c3ccccc3)CCCC2)cc1", "Potency": "inconclusive: 50.1 µM [inhibitor, single point]"}
{"smiles": "O=C(/C=C/c1ccccc1)N/C(=C/c1ccccc1)C(=O)Nc1cccc(C(=O)O)c1", "Potency": "inconclusive: 20 µM [inhibitor, partial curve, poor fit]"}
{"smiles": "CCN1CCN(c2ccc(NC(=O)c3cccc(S(=O)(=O)NCc4cccs4)c3)cc2)CC1", "Potency": "inconclusive: 79.4 µM [inhibitor, partial curve, poor fit]"}
{"smiles": "CCN(CC)CCN(C(=O)c1ccco1)c1nc2ccc(Br)cc2s1", "Potency": "inconclusive: 50.1 µM [inhibitor, partial curve, poor fit]"}
{"smiles": "Cc1ccc(N=CC2=C(O)CC(c3ccco3)CC2=O)cc1", "note": "(stereo not drawn)", "Potency": "inconclusive: 89.1 µM [inhibitor, single point]"}
{"smiles": "CCCOc1ccc(-c2nc(SC)[nH]c(=O)c2C#N)cc1OC", "Potency": "inconclusive: 141 µM [inhibitor, single point]"}
{"smiles": "CCc1ccccc1NC(=O)c1cc(-c2ccco2)on1", "activity change, negative = inhibition": "inactive: -23.4%"}
{"smiles": "COC(=O)c1ccc2nc(-c3cccc(Br)c3)c(CC3CCCCC3)n2c1", "Potency": "inconclusive: 31.6 µM [inhibitor, partial curve]"}
{"smiles": "O=c1cc(O)c(-c2ccc(Cl)cc2)c(Cl)[nH]1", "Potency": "inconclusive: 70.8 µM [inhibitor, partial curve, poor fit]"}
{"smiles": "Cc1ccc(CN(Cc2ccc(C)o2)C(=S)NCC(=O)O)cc1", "Potency": "inconclusive: 63.1 µM [inhibitor, partial curve, poor fit]"}
{"smiles": "CCCC1CCc2c(sc(N)c2C(N)=O)C1", "note": "(stereo not drawn)", "Potency": "inconclusive: 44.7 µM [inhibitor, partial curve, poor fit]"}
{"smiles": "CC(=O)N/C(=C/c1ccccc1)C(=O)OC(C(N)=O)c1ccccc1", "note": "(stereo not drawn)", "Potency": "inconclusive: 63.1 µM [inhibitor, partial curve, poor fit]"}
{"smiles": "COC(=O)CCCn1cc(CN2CC(N3CCCC3)CS2(=O)=O)nn1", "note": "(stereo not drawn)", "Potency": "inconclusive: 56.2 µM [inhibitor, single point]"}
{"smiles": "CCCCN(C)CCCNC(=O)c1ccc2c(c1)N(CC)C(=O)c1ccccc1S2=O", "note": "(stereo not drawn)", "activity change, negative = inhibition": "inactive: 227%"}
{"smiles": "O=C(OCC(=O)N1CCCC1=O)c1cc(-c2cccs2)nc2ccccc12", "Potency": "inconclusive: 89.1 µM [inhibitor, single point]"}
{"smiles": "Cc1ccc(-c2nc(CC(=O)N(C)CC(=O)Nc3ccc(F)cc3)cs2)c(C)c1", "activity change, negative = inhibition": "inactive: -13.1%"}
{"smiles": "COc1ccccc1NS(=O)(=O)c1cc(NC(=O)C(C)NC(N)=O)ccc1N1CCCC1", "note": "(stereo not drawn)", "Potency": "inconclusive: 44.7 µM [inhibitor, partial curve, poor fit]"}
{"smiles": "O=C(N/N=C/c1c(O)ccc2ccccc12)c1cccnc1", "Potency": "inconclusive: 50.1 µM [inhibitor, partial curve, poor fit]"}
{"smiles": "Cc1ccc(O)c(NC(=O)C2CC(c3ccc(F)cc3)=NO2)c1", "note": "(stereo not drawn)", "Potency": "inconclusive: 0.316 µM [inhibitor, full curve, poor fit]"}
{"smiles": "Cn1nnnc1SCC(=O)NC(C)(C)C", "activity change, negative = inhibition": "inactive: 0.0526%"}
{"smiles": "O=C1[C@H]2[C@@H](C3CC3)N3C(=O)CN(CC4CC4)C(=O)[C@@]3(Cc3ccccc3)[C@H]2C(=O)N1c1ccccc1", "activity change, negative = inhibition": "inactive: 4.53%"}
{"smiles": "N#Cc1c2ccc(OCC(=O)NCc3ccco3)cc2n2ccccc12", "Potency": "inconclusive: 50.1 µM [inhibitor, single point]"}
{"smiles": "Cc1cc(C)cc(NC(=O)C2CCCN(C(=O)c3cnn(-c4ccccc4)c3-n3cccc3)C2)c1", "note": "(stereo not drawn)", "Potency": "inconclusive: 0.447 µM [inhibitor, full curve, poor fit]"}
{"smiles": "COc1cc(CNCc2cccc3ccccc23)cc(OC)c1", "Potency": "active: 0.708 µM"}
{"smiles": "CCCCn1c(N)c(N(CC)C(=O)CSCc2ccc(C)cc2)c(=O)[nH]c1=O", "Potency": "inconclusive: 39.8 µM [inhibitor, partial curve, poor fit]"}
{"smiles": "O=C(CN1Cc2nc(OCc3ccc(F)cc3)ccc2OCC1=O)N1CCCC1", "Potency": "inconclusive: 112 µM [inhibitor, partial curve, poor fit]"}
{"smiles": "CN(C)c1ccc(C(=O)N[C@H]2C[C@H]3C(=O)NC[C@@H](CCC(=O)NCc4cccnc4)N3C2)cc1", "Potency": "inconclusive: 44.7 µM [inhibitor, partial curve]"}
{"smiles": "CC1Oc2ccc(-c3csc(NC(=O)c4cccs4)n3)cc2NC1=O", "note": "(stereo not drawn)", "activity change, negative = inhibition": "inactive: 12.2%"}
{"smiles": "O=C(COC(=O)C1CC2C=CC1C2)Nc1ccc2c(c1)OC(F)(F)O2", "note": "(stereo not drawn)", "Potency": "inconclusive: 79.4 µM [inhibitor, partial curve, poor fit]"}
{"smiles": "COc1cc(NC(=O)CSc2nnc(-c3ccncc3)o2)cc(OC)c1OC", "Potency": "inconclusive: 39.8 µM [inhibitor, partial curve, poor fit]"}
{"smiles": "CC(C)C[C@H]1CNC(=S)N1C[C@H]1CCCN1C[C@H](Cc1ccc(O)cc1)N1C[C@H](Cc2ccc(O)cc2)N(CC2CCCCC2)C1=S", "Potency": "inconclusive: 50.1 µM [inhibitor, partial curve, poor fit]"}
{"smiles": "COc1cc(C(=O)NCC(c2ccco2)S(=O)(=O)c2ccccc2)cc(OC)c1OC", "note": "(stereo not drawn)", "Potency": "inconclusive: 112 µM [inhibitor, partial curve, poor fit]"}
{"smiles": "Oc1ccccc1-c1cnc2n[nH]c(-c3ccc4c(c3)OCO4)c2n1", "Potency": "inconclusive: 44.7 µM [inhibitor, full curve, poor fit]"}
{"smiles": "COc1cccc(OCC(O)CN2CCC(CN3C(=O)c4cccc5cccc(c45)C3=O)CC2)c1", "note": "(stereo not drawn)", "Potency": "inconclusive: 89.1 µM [inhibitor, partial curve, poor fit]"}
